Reference: patent US20230331792A1 (ENLITISA (SHANGHAI) PHARMACEUTICAL CO., LTD., priority 2019, published 2023)
HELM strings list residues between dots; [ac] is acetyl, [am] amide, other brackets name non-standard units.

Test: general procedure: Fmoc solid-phase peptide synthesis; Fmoc-Lys(Boc)-Wang resin; Fmoc-Lys(fmoc)-Wang resin; Fmoc-Orn(fmoc)-Wang resin; Fmoc-Dap(fmoc)-Wang resin; TBTU, DIPEA
Conditions: whole synthesis, HPLC, Agilent ZORBAX Eclipse SB-C18, UV at 220 nm (Shimadzu LCMS-8050 / LC-20), acetate

Going from “(Ala-Lys-Pro-Ser-DOPA-Hyp-Thr-DOPA-Hyp-Lys)2-Lys” to “(Ala-Lys-Pro-Ser-Tyr-Hyp-Hyp-Thr-DOPA-Lys)2-Lys”, the “crude HPLC purity” value rises from 66.125% to 68.985%.

Compared with “(Ala-Lys-Pro-Ser-Tyr-Hyp-Hyp-Thr-Tyr-Lys)2-Lys”, “(Ala-Lys-Pro-Ser-Tyr-Hyp-Thr-DOPA-Hyp-Lys)2-Lys” is higher in “crude HPLC purity” value: 67.392% for the first, 68.319% for the second.

Going from “(Ala-Lys-Pro-Ser-Tyr-Hyp-Thr-Tyr-Hyp-Lys)2-Lys” to “(DOPA-Ala-Lys-Pro-Ser-DOPA-Hyp-Thr-DOPA-Hyp-Lys)2-Lys”, the “crude HPLC purity” value falls from 69.176% to 64.934%.

Compared with “(DOPA-Ala-Lys-Pro-Ser-Tyr-Hyp-Thr-Tyr-Hyp-Lys)2-Lys”, “(DOPA-Lys-Pro-Ser-DOPA-Hyp-Hyp-Thr-Ala-Lys)2-Lys” is lower in “crude HPLC purity” value: 65.843% for the first, 65.384% for the second.

Compared with “(HCA-Ala-Lys-Pro-Ser-DOPA-Hyp-Thr-DOPA-Hyp-Lys)2-Lys”, “(HCA-Ala-Lys-Pro-Ser-Tyr-Hyp-Thr-Tyr-Hyp-Lys)2-Lys” is higher in “crude HPLC purity” value: 61.036% for the first, 62.283% for the second.

First: (HCA-Lys-Pro-Ser-Tyr-Hyp-Hyp-Thr-Ala-Lys)2-Lys
Second: (Lys-Ala-Lys-Pro-Ser-DOPA-Hyp-Hyp-Thr-DOPA)2-Lys
The “crude HPLC purity” value of the first is higher: 65.457% for the first, 61.252% for the second.

Compared with “PEPTIDE1{A.K.P.S.[DOPA].[Hyp].T.[DOPA].[Hyp].K.K.K}|PEPTIDE2{A.K.P.S.[DOPA].[Hyp].T.[DOPA].[Hyp].K}|PEPTIDE3{A.K.P.S.[DOPA].[Hyp].T.[DOPA].[Hyp].K.K}|PEPTIDE4{A.K.P.S.[DOPA].[Hyp].T.[DOPA].[Hyp].K}$PEPTIDE2,PEPTIDE1,10:R2-11:R3|PEPTIDE3,PEPTIDE1,11:R2-12:R3|PEPTIDE4,PEPTIDE3,10:R2-11:R3$$$V2.0”, “[(Ala-Lys-Pro-Ser-DOPA-Hyp-Hyp-Thr-DOPA-Lys)2-Lys]2-Lys” is higher in “crude HPLC purity” value: 52.165% for the first, 52.553% for the second.

First: [(Ala-Lys-Pro-Ser-Tyr-Hyp-Hyp-Thr-DOPA-Lys)2-Lys]2-Lys
Second: [(Ala-Lys-Pro-Ser-Tyr-Hyp-Hyp-Thr-Tyr-Lys)2-Lys]2-Lys
The “crude HPLC purity” value of the first is higher: 52.126% for the first, 51.071% for the second.

First: [(Ala-Lys-Pro-Ser-Tyr-Hyp-Thr-DOPA-Hyp-Lys)2-Lys]2-Lys
Second: [(Ala-Lys-Pro-Ser-Tyr-Hyp-Thr-Tyr-Hyp-Lys)2-Lys]2-Lys
The “crude HPLC purity” value of the first is higher: 52.194% for the first, 50.944% for the second.

Compared with “[(DOPA-Ala-Lys-Pro-Ser-DOPA-Hyp-Thr-DOPA-Hyp-Lys)2-Lys]2-Lys”, “[(DOPA-Ala-Lys-Pro-Ser-Tyr-Hyp-Thr-Tyr-Hyp-Lys)2-Lys]2-Lys” is lower in “crude HPLC purity” value: 50.137% for the first, 50.058% for the second.

First: [(DOPA-Lys-Pro-Ser-DOPA-Hyp-Thr-Ala-Hyp-Lys)2-Lys]2-Lys
Second: [(HCA-Ala-Lys-Pro-Ser-Tyr-Hyp-Hyp-Thr-Tyr-Lys)2-Lys]2-Lys
The “crude HPLC purity” value of the first is higher: 50.576% for the first, 49.033% for the second.

First: [(HCA-Ala-Lys-Pro-Ser-Tyr-Hyp-Thr-Tyr-Hyp-Lys)2-Lys]2-Lys
Second: [(HCA-Lys-Pro-Ser-DOPA-Hyp-Thr-Ala-Hyp-Lys)2-Lys]2-Lys
The “crude HPLC purity” value of the first is lower: 48.274% for the first, 53.853% for the second.

Compared with “[(Lys-Ala-Lys-Hyp-Ser-DOPA-Hyp-Hyp-Thr-DOPA)2-Lys]2-Lys”, “[(Lys-Ala-Lys-Pro-Ser-Tyr-Hyp-Hyp-Thr-Tyr)2-Lys]2-Lys” is lower in “crude HPLC purity” value: 50.577% for the first, 49.642% for the second.

Going from “{[(Ala-Lys-Pro-Ser-DOPA-Hyp-Thr-DOPA-Hyp-Lys)2-Lys]2-Lys}2-Lys” to “{[(Ala-Lys-Pro-Ser-Tyr-Hyp-Hyp-Thr-DOPA-Lys)2-Lys]2-Lys}2-Lys”, the “crude HPLC purity” value rises from 30.234% to 30.423%.

Compared with “{[(Ala-Lys-Pro-Ser-Tyr-Hyp-Hyp-Thr-Tyr-Lys)2-Lys]2-Lys}2-Lys”, “{[(Ala-Lys-Pro-Ser-Tyr-Hyp-Thr-DOPA-Hyp-Lys)2-Lys]2-Lys}2-Lys” is lower in “crude HPLC purity” value: 31.129% for the first, 30.638% for the second.

Going from “{[(Ala-Lys-Pro-Ser-Tyr-Hyp-Thr-Tyr-Hyp-Lys)2-Lys]2-Lys}2-Lys” to “{[(DOPA-Ala-Lys-Pro-Ser-DOPA-Hyp-Thr-DOPA-Hyp-Lys)2-Lys]2-Lys}2-Lys”, the “crude HPLC purity” value falls from 30.586% to 28.957%.

Compared with “{[(DOPA-Ala-Lys-Pro-Ser-Tyr-Hyp-Thr-Tyr-Hyp-Lys)2-Lys]2-Lys}2-Lys”, “{[(HCA-Ala-Lys-Pro-Ser-Tyr-Hyp-Thr-Tyr-Hyp-Lys)2-Lys]2-Lys}2-Lys” is lower in “crude HPLC purity” value: 29.398% for the first, 28.821% for the second.

For “(Ala-Lys-Pro-Ser-Tyr-Hyp-Hyp-Thr-DOPA-Lys)2”, the “final HPLC purity” value was 98%.

Same assay, conditions: whole synthesis, UV 220 nm, acetate

For “(Ala-Lys-Pro-Ser-Tyr-Hyp-Hyp-Thr-DOPA-Lys)2”, the “crude HPLC purity” value was 60.345%.
